Source: paper PMC4385862
No constants are given. Whether binding was seen depends on the method and setting. In cells and extracts the contact can be indirect. Some entries that bind do so weakly or less than the wild type. For some of these results: Tags and fused reporters may be left off the sequences shown.

By UniProt entry, the sequences of proteins in these tests, tags left out. Where a name states a change or a piece, a line headed by the entry shows the natural chain unless it says otherwise.
UniProt P05556: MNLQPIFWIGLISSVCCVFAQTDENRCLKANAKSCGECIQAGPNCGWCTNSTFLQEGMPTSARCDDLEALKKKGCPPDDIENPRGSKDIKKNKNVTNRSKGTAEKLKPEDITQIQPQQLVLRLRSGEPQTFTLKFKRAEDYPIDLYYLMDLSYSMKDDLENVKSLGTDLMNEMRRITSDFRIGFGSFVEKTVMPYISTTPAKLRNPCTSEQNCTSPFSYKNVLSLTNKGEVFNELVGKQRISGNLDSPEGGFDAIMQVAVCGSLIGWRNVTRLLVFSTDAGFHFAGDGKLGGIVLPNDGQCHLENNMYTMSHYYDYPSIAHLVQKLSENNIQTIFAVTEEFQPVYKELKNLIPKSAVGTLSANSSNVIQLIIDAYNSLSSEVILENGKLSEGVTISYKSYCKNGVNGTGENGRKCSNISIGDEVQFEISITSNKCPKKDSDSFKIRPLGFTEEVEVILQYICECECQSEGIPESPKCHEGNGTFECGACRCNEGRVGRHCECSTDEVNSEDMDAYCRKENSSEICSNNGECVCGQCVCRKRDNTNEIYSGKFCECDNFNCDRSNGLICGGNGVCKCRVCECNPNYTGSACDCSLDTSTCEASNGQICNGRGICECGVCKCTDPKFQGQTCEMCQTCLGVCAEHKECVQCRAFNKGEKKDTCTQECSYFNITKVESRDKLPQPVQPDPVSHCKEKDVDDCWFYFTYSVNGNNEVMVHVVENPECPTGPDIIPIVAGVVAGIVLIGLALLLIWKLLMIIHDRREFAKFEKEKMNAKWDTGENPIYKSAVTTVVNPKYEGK

T1: chloride channel-3 (ClC-3) (human (endogenous in HeLa)) (UniProt P51790)
T1 sequence: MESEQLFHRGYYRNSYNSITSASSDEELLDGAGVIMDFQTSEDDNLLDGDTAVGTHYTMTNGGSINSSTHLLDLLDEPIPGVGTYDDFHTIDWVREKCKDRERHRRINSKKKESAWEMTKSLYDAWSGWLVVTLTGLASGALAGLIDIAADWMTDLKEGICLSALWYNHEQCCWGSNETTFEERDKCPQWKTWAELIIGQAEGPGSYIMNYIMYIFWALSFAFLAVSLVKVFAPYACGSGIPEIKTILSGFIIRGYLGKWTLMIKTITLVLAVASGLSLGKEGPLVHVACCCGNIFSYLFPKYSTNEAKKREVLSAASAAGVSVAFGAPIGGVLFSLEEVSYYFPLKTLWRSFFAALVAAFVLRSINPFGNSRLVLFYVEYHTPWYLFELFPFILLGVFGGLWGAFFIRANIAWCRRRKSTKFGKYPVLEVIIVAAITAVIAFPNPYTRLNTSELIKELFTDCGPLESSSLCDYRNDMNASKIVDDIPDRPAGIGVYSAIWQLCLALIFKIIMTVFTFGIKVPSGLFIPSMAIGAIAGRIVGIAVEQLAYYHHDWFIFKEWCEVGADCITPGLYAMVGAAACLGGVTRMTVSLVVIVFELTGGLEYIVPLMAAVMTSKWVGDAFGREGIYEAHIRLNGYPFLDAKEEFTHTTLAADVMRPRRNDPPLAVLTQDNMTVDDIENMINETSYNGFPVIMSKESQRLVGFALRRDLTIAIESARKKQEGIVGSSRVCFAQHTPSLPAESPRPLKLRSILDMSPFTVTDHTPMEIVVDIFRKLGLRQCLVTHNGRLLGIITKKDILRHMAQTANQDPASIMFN


How the values were obtained:
[1] = target: T1, chloride channel-3 (ClC-3) (human (endogenous in HeLa)); test: co-IP; endogenous proteins in extract of EGF-treated (ruffling) HeLa cells; Pierce Co-Immunoprecipitation Kit, 50 μg antibody covalently immobilised on resin, lysate pre-cleared, 12 h at 4°C; done in both directions
[2] = target: β1 integrin (human (endogenous in HeLa)) (UniProt P05556); test: as above
[3] = target: T1, chloride channel-3 (ClC-3) (human (endogenous in HeLa)); test: as above; remark: listed apart in the source
[4] = target: β1 integrin (human (endogenous in HeLa)) (UniProt P05556); test: co-IP; EGF-stimulated HeLa cells transfected with wild-type or Ser→Ala mutant GFP-K18; endogenous ClC-3 and β1 integrin
[5] = target: T1, chloride channel-3 (ClC-3) (human (endogenous in HeLa)); test: as above

| binding [1] | binding [2] | binding [3] | binding [4] | binding [5] | Molecule |
| --- | --- | --- | --- | --- | --- |
| no binding | – | – | – | – | β1 integrin (from UniProt P05556 21-798) (receptor) |
| – | binds | binds | – | – | Keratin 18 (K18) (protein, UniProt P05783 1-430) MSFTTRSTFSTNYRSLGSVQAPSYGARPVSSAASVYAGAGGSGSRISVSRSTSFRGGMGSGGLATGIAGGLAGMGGIQNEKETMQSLNDRLASYLDRVRSLETENRRLESKIREHLEKKGPQVRDWSHYFKIIEDLRAQIFANTVDNARIVLQIDNARLAADDFRVKYETELAMRQSVENDIHGLRKVIDDTNITRLQLETEIEALKEELLFMKKNHEEEVKGLQAQIASSGLTVEVDAPKSQDLAKIMADIRAQYDELARKNREELDKYWSQQIEESTTVVTTQSAEVGAAETTLTELRRTVQSLEIDLDSMRNLKASLENSLREVEARYALQMEQLNGILLHLESELAQTRAEGQRQAQEYEALLNIKVKLEAEIATYRRLLEDGEDFNLGDALDSSNSMQTIQKTTTRRIVDGKVVSETNDTKVLRH |
| – | – | – | binds | binds | wild-type (WT) GFP-K18 (protein, UniProt P05783 1-430) MSFTTRSTFSTNYRSLGSVQAPSYGARPVSSAASVYAGAGGSGSRISVSRSTSFRGGMGSGGLATGIAGGLAGMGGIQNEKETMQSLNDRLASYLDRVRSLETENRRLESKIREHLEKKGPQVRDWSHYFKIIEDLRAQIFANTVDNARIVLQIDNARLAADDFRVKYETELAMRQSVENDIHGLRKVIDDTNITRLQLETEIEALKEELLFMKKNHEEEVKGLQAQIASSGLTVEVDAPKSQDLAKIMADIRAQYDELARKNREELDKYWSQQIEESTTVVTTQSAEVGAAETTLTELRRTVQSLEIDLDSMRNLKASLENSLREVEARYALQMEQLNGILLHLESELAQTRAEGQRQAQEYEALLNIKVKLEAEIATYRRLLEDGEDFNLGDALDSSNSMQTIQKTTTRRIVDGKVVSETNDTKVLRH |
| – | binds | binds | – | – | Ser-52 phosphorylated K18 (K18 pS52) (protein, UniProt P05783 1-430, phosphoserine at 52) MSFTTRSTFSTNYRSLGSVQAPSYGARPVSSAASVYAGAGGSGSRISVSRSTSFRGGMGSGGLATGIAGGLAGMGGIQNEKETMQSLNDRLASYLDRVRSLETENRRLESKIREHLEKKGPQVRDWSHYFKIIEDLRAQIFANTVDNARIVLQIDNARLAADDFRVKYETELAMRQSVENDIHGLRKVIDDTNITRLQLETEIEALKEELLFMKKNHEEEVKGLQAQIASSGLTVEVDAPKSQDLAKIMADIRAQYDELARKNREELDKYWSQQIEESTTVVTTQSAEVGAAETTLTELRRTVQSLEIDLDSMRNLKASLENSLREVEARYALQMEQLNGILLHLESELAQTRAEGQRQAQEYEALLNIKVKLEAEIATYRRLLEDGEDFNLGDALDSSNSMQTIQKTTTRRIVDGKVVSETNDTKVLRH |
